The target of the assay is HPV16 L2 minor capsid protein with a C-terminal 3xFLAG tag, in the pseudovirus WT HPV16.L2F (HPV16) (UniProt P03107). In words: affinity purification with mass spectrometry; HeLa cells infected with WT HPV16.L2F for 16 hrs, lysed in 1% Triton X-100 HN buffer; FLAG M2 antibody, protein G magnetic beads, elution with 3xFLAG peptide; control: uninfected extract mixed with purified PsV; data from Inoue et al., 2018.

Results are given in words; binding and its absence hold for the method and conditions named. In cells and extracts the contact can be indirect. Here binding means that the protein was enriched with, or labelled near, the bait; the list need not be complete.

B1: p120 catenin (protein, UniProt O60716 1-968)
chain: MDDSEVESTASILASVKEQEAQFEKLTRALEEERRHVSAQLERVRVSPQDANPLMANGTLTRRHQNGRFVGDADLERQKFSDLKLNGPQDHSHLLYSTIPRMQEPGQIVETYTEEDPEGAMSVVSVETSDDGTTRRTETTVKKVVKTVTTRTVQPVAMGPDGLPVDASSVSNNYIQTLGRDFRKNGNGGPGPYVGQAGTATLPRNFHYPPDGYSRHYEDGYPGGSDNYGSLSRVTRIEERYRPSMEGYRAPSRQDVYGPQPQVRVGGSSVDLHRFHPEPYGLEDDQRSMGYDDLDYGMMSDYGTARRTGTPSDPRRRLRSYEDMIGEEVPSDQYYWAPLAQHERGSLASLDSLRKGGPPPPNWRQPELPEVIAMLGFRLDAVKSNAAAYLQHLCYRNDKVKTDVRKLKGIPVLVGLLDHPKKEVHLGACGALKNISFGRDQDNKIAIKNCDGVPALVRLLRKARDMDLTEVITGTLWNLSSHDSIKMEIVDHALHALTDEVIIPHSGWEREPNEDCKPRHIEWESVLTNTAGCLRNVSSERSEARRKLRECDGLVDALIFIVQAEIGQKDSDSKLVENCVCLLRNLSYQVHREIPQAERYQEAAPNVANNTGPHAASCFGAKKGKDEWFSRGKKPIEDPANDTVDFPKRTSPARGYELLFQPEVVRIYISLLKESKTPAILEASAGAIQNLCAGRWTYGRYIRSALRQEKALSAIADLLTNEHERVVKAASGALRNLAVDARNKELIGKHAIPNLVKNLPGGQQNSSWNFSEDTVISILNTINEVIAENLEAAKKLRETQGIEKLVLINKSGNRSEKEVRAAALVLQTIWGYKELRKPLEKEGWKKSDFQVNLNNASRSQSSHSYDDSTLPLIDRNQKSDKKPDREEIQMSNMGSNTKSLDNNYSTPNERGDHNRTLDRSGDLGDMEPLKGTTPLMQDEGQESLEEELDVLVLDDEGGQVSYPSMQKI
Consider B1, for which the binding entry was “binds”.

The record behind these values is paper PMC7577436.
